Assay results published in patent US20260250404A1.
No constants are given. Whether binding was seen depends on the method and setting. Some results given as binding are weak or reduced against the parent protein; the word gives no strength. Where a sequence is shown, tags or fusion partners need not be part of it.

Protein sequences, listed by entry. Tags and fused reporters are not part of them. Lines headed by an entry give the natural chain unless they say otherwise; changes in a name come on top.
UniProt P26842: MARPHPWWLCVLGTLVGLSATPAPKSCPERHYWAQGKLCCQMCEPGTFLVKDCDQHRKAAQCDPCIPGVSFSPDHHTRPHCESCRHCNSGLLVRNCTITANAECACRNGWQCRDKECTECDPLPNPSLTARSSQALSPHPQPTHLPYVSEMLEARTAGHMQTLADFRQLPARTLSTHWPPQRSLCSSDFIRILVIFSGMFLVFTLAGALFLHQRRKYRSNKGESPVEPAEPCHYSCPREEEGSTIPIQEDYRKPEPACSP

Columns and labels:
[1] = target: human CD27 on the cell surface (T cells, transfected HEK293F cells, Daudi cells, NFκB-luc2/CD27 Jurkat cells) (human) (UniProt P26842); experiment: flow cytometry on T cells and transfected HEK293F cells
[2] = target: human CD27 on the cell surface (T cells, transfected HEK293F cells, Daudi cells, NFκB-luc2/CD27 Jurkat cells) (human) (UniProt P26842); experiment: flow cytometry on human T cells (PBMC) and CD27-transfected HEK293F cells
[3] = target: human CD27 on the cell surface (T cells, transfected HEK293F cells, Daudi cells, NFκB-luc2/CD27 Jurkat cells) (human) (UniProt P26842); experiment: flow cytometry on T cells in human PBMC (endogenous CD27), PE-labeled goat anti-human IgG, median MFI PE
[4] = target: human CD27 on the cell surface (T cells, transfected HEK293F cells, Daudi cells, NFκB-luc2/CD27 Jurkat cells) (human) (UniProt P26842); experiment: flow cytometry on HEK293F cells transfected with human CD27, PE-labeled goat anti-human IgG, median MFI PE

binding [1]: binds | binding [2]: binds | binding [3]: binds | binding [4]: binds
B1: IgG1-CD27-A carrying F405L-L234F-L235E-D265A in the IgG Fc domain (antibody, V domains shown)
VH: QVQLMQSGSELKKPGASVKVSCRASGYTFTTYAMNWVRQAPGQGPEWMGWINTNTGNPTYAQGFTGRFVFSLDTTVTTTYLQISSLKAEDTAVYFCAREAGSFDYWGQGTLVTVSS
VL: QSALTQPASVSGSPGQSITISCTGTSSDVYYYNYVSWYQQHPGRAPKLVIYDVSNRPSGVSNRFSGSKSGNTASLTISGLRAEDEADYYCSSYTVNRVWVFGGGTKLTVL
